Article PMC11404314
These are yes or no findings as the source states them, for the method shown. Binding seen in cells or lysates may run through a third protein. Some entries that bind do so weakly or less than the wild type.

The chains behind the UniProt entries cited, without tags or fusion partners.
UniProt O35129: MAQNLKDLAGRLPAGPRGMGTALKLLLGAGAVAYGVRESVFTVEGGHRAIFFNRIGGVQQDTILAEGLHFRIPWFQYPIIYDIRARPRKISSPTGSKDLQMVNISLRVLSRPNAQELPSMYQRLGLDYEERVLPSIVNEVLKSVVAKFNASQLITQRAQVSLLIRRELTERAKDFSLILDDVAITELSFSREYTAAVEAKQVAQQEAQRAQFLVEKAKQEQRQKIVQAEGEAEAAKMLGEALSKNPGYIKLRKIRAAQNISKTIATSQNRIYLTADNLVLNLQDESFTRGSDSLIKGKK

Target: prohibitin 2 (PHB2) (mouse (endogenous in HL-1)) (UniProt O35129)
Assay: co-IP; HL-1 cardiomyocytes in normal (5.5 mmol/l) or high-glucose (30 mmol/l, 48 h) medium; lysate precleared, primary antibody overnight at 4 °C, protein G agarose, western blot; IgG control

binding: binds
B1: phosphoglycerate mutase 5 (PGAM5) (enzyme, UniProt Q8BX10 1-288)
chain: MAFRQALQLAACGLAGGSAAVLFSAVAVGKPRGGGDADTRATEPPAWTGARAGRGVWDTNWDRREPLSLINLKKRNVESGEDELTSRLDHYKAKATRHIFLIRHSQYHVDGSLEKDRTLTPLGREQAELTGLRLASLGLKFNKIVHSSMTRAVETTDIISKHLPGVSRVSTDLLREGAPIEPDPPVSHWKPEAVQYYEDGARIEAAFRNYIHRADARQEEDSYEIFICHANVIRYIVCRALQFPPEGWLRLSLNNGSITHLVIRPNGRVALRTLGDTGFMPPDKITRS
